# According to publication PMC8986805:
# Sequences of proteins named here, by UniProt entry; tags and fusion partners are left off.
# UniProt Q8N2C7: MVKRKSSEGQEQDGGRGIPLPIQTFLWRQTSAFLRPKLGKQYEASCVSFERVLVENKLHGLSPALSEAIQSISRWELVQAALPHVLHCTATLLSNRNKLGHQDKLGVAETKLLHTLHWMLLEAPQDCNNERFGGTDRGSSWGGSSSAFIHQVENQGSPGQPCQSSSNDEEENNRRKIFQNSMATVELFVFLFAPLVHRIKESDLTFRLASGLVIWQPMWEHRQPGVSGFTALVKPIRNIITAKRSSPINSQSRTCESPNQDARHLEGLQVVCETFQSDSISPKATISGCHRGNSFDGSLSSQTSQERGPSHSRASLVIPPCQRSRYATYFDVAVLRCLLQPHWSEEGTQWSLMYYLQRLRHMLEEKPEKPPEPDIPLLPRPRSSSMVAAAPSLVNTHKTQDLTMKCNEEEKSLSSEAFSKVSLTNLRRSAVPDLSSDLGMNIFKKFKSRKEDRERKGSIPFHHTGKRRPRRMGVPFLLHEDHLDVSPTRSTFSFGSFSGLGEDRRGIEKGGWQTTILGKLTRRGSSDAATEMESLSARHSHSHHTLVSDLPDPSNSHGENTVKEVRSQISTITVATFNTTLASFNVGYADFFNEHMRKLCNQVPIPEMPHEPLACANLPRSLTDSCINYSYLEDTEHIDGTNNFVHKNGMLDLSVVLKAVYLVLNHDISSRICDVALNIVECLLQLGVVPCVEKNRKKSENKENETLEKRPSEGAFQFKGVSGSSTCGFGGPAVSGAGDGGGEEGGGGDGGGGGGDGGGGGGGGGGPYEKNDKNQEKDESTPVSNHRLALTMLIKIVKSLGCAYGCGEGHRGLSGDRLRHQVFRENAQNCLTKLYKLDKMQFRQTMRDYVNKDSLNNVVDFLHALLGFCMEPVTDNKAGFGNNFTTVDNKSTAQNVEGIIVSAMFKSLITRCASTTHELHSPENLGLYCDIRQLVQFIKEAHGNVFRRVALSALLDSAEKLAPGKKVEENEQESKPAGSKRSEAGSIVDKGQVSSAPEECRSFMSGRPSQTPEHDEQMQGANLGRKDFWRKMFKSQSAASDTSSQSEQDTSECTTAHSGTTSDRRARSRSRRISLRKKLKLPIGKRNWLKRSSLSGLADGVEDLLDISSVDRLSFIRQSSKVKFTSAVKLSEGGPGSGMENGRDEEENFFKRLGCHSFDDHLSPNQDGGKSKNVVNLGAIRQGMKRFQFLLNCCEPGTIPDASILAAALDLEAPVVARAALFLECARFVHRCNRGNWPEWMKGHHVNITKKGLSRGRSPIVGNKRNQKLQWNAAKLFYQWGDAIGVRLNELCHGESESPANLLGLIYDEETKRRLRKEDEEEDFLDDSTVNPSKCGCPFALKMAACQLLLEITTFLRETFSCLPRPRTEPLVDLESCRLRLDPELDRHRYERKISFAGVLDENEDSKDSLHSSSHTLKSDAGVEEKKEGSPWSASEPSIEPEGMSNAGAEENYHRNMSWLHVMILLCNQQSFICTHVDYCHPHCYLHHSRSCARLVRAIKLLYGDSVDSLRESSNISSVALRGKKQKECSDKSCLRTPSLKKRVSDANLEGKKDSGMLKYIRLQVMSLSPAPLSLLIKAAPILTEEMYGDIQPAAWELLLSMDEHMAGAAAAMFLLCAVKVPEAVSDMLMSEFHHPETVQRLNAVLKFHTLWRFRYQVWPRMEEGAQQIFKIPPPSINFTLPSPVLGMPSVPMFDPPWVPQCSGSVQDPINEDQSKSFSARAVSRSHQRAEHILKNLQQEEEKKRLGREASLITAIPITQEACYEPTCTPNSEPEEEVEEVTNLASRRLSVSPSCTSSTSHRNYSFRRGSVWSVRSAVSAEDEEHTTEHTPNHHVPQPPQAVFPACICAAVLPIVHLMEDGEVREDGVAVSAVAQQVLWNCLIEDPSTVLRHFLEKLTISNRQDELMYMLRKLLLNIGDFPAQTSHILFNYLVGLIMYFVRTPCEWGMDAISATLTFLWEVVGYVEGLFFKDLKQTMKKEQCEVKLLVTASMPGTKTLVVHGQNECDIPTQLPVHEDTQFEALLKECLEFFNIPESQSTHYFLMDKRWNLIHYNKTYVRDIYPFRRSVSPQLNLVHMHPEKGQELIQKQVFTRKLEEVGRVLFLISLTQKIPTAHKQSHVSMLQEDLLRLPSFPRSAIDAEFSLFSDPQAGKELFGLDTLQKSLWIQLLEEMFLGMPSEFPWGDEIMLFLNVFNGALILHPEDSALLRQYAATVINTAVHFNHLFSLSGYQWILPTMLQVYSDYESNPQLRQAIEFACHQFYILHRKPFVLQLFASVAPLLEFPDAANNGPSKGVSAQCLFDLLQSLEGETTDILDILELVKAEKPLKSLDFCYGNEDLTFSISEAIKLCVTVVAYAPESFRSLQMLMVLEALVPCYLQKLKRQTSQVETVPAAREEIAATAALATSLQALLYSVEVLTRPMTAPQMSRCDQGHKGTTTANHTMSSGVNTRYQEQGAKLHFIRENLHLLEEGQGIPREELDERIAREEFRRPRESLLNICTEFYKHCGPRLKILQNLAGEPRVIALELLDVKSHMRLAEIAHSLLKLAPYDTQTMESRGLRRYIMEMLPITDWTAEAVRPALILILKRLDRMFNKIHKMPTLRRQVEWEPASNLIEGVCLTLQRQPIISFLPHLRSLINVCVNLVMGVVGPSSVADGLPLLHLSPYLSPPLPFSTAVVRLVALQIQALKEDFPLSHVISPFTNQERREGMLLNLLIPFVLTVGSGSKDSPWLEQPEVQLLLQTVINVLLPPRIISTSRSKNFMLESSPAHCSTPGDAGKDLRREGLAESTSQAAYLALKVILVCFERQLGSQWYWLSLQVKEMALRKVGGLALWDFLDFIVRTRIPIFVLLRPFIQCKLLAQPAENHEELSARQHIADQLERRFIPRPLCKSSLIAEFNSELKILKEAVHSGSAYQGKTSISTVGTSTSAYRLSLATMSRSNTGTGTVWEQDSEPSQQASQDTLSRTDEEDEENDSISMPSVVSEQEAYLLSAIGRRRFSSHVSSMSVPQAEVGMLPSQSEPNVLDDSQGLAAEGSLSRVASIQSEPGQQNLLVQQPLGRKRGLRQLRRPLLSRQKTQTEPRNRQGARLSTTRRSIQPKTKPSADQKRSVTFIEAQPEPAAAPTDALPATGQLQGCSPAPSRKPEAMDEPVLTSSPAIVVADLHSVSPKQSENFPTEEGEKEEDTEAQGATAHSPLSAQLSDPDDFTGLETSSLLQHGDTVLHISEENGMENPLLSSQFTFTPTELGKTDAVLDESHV
# UniProt Q8IZF0: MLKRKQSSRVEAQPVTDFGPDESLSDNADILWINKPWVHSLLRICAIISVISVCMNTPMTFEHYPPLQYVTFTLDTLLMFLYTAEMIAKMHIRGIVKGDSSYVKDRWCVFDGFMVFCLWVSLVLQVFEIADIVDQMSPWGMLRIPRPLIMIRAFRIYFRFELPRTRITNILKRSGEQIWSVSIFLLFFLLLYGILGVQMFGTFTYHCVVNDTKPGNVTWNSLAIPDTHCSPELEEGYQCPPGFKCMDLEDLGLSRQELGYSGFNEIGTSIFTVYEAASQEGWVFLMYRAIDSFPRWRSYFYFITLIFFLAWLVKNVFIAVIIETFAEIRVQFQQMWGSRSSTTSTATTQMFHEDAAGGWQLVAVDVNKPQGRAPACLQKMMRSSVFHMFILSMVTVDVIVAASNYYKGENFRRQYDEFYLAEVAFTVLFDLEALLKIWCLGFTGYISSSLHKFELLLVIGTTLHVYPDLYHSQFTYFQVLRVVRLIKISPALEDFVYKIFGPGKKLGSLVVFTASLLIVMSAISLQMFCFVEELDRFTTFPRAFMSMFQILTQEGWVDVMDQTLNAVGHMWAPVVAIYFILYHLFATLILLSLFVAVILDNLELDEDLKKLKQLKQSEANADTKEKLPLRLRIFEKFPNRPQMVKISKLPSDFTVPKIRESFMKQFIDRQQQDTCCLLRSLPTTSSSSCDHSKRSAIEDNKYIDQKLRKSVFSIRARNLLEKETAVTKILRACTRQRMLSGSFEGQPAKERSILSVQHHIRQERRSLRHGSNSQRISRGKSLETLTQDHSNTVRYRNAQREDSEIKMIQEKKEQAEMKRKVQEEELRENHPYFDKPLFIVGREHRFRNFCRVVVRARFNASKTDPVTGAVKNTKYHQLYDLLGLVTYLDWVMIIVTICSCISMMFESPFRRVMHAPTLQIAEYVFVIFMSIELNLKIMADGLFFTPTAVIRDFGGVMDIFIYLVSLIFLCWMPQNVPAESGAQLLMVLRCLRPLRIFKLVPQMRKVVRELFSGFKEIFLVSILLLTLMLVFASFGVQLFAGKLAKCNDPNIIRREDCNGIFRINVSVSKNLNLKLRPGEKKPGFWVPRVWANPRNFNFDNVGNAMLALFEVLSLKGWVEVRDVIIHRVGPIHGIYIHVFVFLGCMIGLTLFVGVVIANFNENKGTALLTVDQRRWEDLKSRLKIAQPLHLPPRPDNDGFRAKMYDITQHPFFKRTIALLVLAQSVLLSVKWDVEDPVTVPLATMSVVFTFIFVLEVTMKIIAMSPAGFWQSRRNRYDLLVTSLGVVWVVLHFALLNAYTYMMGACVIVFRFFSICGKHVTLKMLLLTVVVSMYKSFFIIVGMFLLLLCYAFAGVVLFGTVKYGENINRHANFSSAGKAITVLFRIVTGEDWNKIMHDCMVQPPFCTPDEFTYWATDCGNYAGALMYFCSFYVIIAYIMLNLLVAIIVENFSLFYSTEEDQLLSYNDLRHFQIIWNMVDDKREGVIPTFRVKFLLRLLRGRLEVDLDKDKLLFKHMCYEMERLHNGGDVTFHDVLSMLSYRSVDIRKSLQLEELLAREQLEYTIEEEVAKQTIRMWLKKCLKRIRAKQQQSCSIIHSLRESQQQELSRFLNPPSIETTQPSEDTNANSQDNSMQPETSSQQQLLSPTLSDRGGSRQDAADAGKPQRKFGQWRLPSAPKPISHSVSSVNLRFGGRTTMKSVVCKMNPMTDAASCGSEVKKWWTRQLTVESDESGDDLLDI
# These are yes or no findings as the source states them, for the method shown. Some entries that bind do so weakly or less than the wild type.
# Columns and labels:
# human UNC80 (human) = human UNC80 (human) (UniProt Q8N2C7); test: cryo-EM structure; NALCN-GFP, FAM155A, UNC79-FLAG and UNC80 co-expressed in HEK293F, tandem affinity purified, BS3 cross-linked, SEC in 25 mM MOPS pH 7.4, 150 mM NaCl, 0.015% GDN; overall 4.5 Å, local refinement of UNC79 N-half + UNC80 C-half 3.3 Å; both purified
# [1] = target: human NALCN with C-terminal GFP (human) (UniProt Q8IZF0); test: as above
substance,measurement,setting,value
human UNC79 with C-terminal 2x FLAG tag (from UniProt Q9P2D8 1-2635),binding,human UNC80 (human),binds
same,binding,[1],binds
